These are yes or no findings as the source states them, for the method shown. In cells and extracts the contact can be indirect. Here binding means that the protein was enriched with, or labelled near, the bait; the list need not be complete. Sequences can lack the tags named with a protein.
Target: T1, Flag-tagged DExH-box helicase 58 (DHX58) (UniProt Q99J87)
T1 sequence: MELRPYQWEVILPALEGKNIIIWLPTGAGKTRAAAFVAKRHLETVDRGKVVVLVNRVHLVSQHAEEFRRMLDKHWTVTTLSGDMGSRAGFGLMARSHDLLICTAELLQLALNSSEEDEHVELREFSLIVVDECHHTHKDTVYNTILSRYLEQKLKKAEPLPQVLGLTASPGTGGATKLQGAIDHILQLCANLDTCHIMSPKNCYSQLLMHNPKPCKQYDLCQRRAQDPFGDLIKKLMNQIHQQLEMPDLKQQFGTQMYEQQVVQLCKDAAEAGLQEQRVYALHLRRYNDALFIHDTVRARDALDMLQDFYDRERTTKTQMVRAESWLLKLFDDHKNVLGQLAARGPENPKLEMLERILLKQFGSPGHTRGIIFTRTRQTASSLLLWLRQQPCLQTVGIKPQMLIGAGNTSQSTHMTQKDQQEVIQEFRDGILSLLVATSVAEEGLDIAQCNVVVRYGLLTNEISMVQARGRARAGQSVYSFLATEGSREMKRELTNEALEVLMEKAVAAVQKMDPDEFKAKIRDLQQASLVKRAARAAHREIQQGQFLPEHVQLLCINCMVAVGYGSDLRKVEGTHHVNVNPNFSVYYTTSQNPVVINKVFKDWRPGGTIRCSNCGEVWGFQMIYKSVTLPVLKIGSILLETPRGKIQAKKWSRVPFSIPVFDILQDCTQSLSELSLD
Assay: affinity purification with mass spectrometry; immunoprecipitation of Flag-tagged DHX58 from the lysates of transfected hepatocytes; MS of the associated proteins

binding: binds
B1: YT521-B homology domain containing 2 (YTHDC2), found with Flag-DHX58 in transfected hepatocytes (protein, UniProt B2RR83 1-1445)
chain: MSRPSSVSPRPPAPSGGGTGGGGGGSGGGGGGGGGGPASCGPGGGGRAKGLKDIRIDEEVKIAVNIALERFRYGDQREMEFPSSLTSTERAFIHRLSQSLGLVSKSKGKGANRYLTVKKKDGSETAHAMMTCNLTHNTKHAVRSLIQRFPVTNKERTELLPKTERGNVFAVEAENREMSKTSGRLNNGIPQVPVKRGESEFDSFRQSLPVFEKQEEIVKIIKENKVVLIVGETGSGKTTQIPQFLLDDCFKNGIPCRIFCTQPRRLAAIAVAERVAAERRERIGQTIGYQIRLESRVSPKTLLTFCTNGVLLRTLMAGDSTLSTVTHVIVDEVHERDRFSDFLLTKLRDLLQKHPTLKLILSSAALDVNLFIRYFGSCPVIYIQGRPFEVKEMFLEDILRTTGYTNKEMLKYKKEKQREEKQQTTLTEWYSAQENTFKPESQRQRAVASVSEEYDLLDDGGDAVFSQLTEKDVNCLEPWLIKEMDACLSDIWLHKDVDAFAQVFHLILTENVSVDYRHSETSATALMVAAGRGFTSQVEQLISMGANVHSKASNGWMALDWAKHFGQTEIVDLLESYSASLEFGNLDESSLVQTNGNDLSAEDRELLKAYHHSFDDEKVDLDLIMHLLYNICHSCDAGAILIFLPGYDEIVGLRDRILFDDKRFADNTHRYQVFMLHSNMQTSDQKKVLKNPPAGVRKIILSTNIAETSITVNDVVFVIDSGKVKEKSFDALNFVTMLKMVWISKASAIQRKGRAGRCRPGICFRLFSRLRFQNMLEFQTPELLRMPLQELCLHTKLLAPVNCTIADFLMKAPEPPPALIVRNAVQMLKTIDAMDAWEDLTELGYHLADLPVEPHLGKMVLCAVVLKCLDPILTIACTLAYRDPFVLPTQASQKRAAMLCRKRFTAGTFSDHMALLRAFQAWQKARSDGWERAFCEKNFLSQATMEIIIGMRTQLLGQLRASGFVRARGGGDIRDVNTNSENWAVVKAALVAGMYPNLVHVDRENVILTGPKEKKVRFHPTSVLSQPQYKKIPPANGQAAAIQALPTDWLIYDEMTRAHRIANIRCCSAVTPVTVLVFCGPARLASNALQEPSSFRADGIPNDSSDSEMEDRTTANLAALKLDEWLNFKLEPEAASLLLQLRQKWHSLFLRRMRAPSKPWSQVDEATIRAIIAVLSTEEQSAGLQQPSGIGQRPRPMSSEELPLASSWRSNNSRKSTADTEFADGSTTGERVLMKSPSPALHPPQKYKDRGILHPKRSTDDRSDQSSVKSTDSSSYPSPCASPSPPSSGKGSKSPSPRPNMPIRYFIMKSSNLRNLEISQQKGIWSTTPSNERKLNRAFWESSMVYLVFSVQGSGHFQGFSRMSSEIGREKSQDWGSAGLGGVFKVEWIRKESLPFQFAHHLLNPWNDNKKVQISRDGQELEPQVGEQLLQLWERLPLGEKTTSD
